Measurements reported in PubChem BioAssay AID1259424 (University of Nebraska Medical Center, 2018)

Assay: 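Seek colon cancer survival genes behaving like KSR1, using a six-gene signature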 (primary screen)
Cells: human HCT116 colon cancer cells
Reagents: siRNA pool against human genes, 50 nM
Detection: 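Six signature mRNAs by branched-DNA multiplex assay, scaled to two housekeeping genes and non-targeting median, log2; matched to mean KSR1 knockdown profile by Pearson correlation and euclidean distance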
Reading the numbers: mean correlation with KSR1 profile and KSR1 correlation: higher = expression change more like KSR1 knockdown; mean distance from KSR1 profile: higher = expression change less like KSR1 knockdown
The deposit covers about 14,000 reagents; below is an unselected part. 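Higher correlation or smaller distance means closer resemblance to KSR1 loss; control wells, including KSR1 knockdowns, recur on many plates.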 Not all columns of the deposit are shown. The record does not give: the time to read-out.

no.	gene	mean correlation with KSR1 profile	mean distance from KSR1 profile	KSR1 correlation, replicate 1	KSR1 correlation, replicate 2
1	SYNGR1	-0.666	1.53	-0.836	-0.415
2	EIF2AK1	0.368	1.77	0.368	0.224
3	WRAP73	0.257	6.01	0.275	0.39
4	SETDB1	0.258	1.9	0.261	0.283
5	COLGALT1	0.569	1.18	0.601	0.873
6	IDO1	-0.367	1.82	-0.6	-0.0796
7	ERAS	-0.32	1.56	-0.595	-0.186
8	SHOC2	0.134	0.761	-0.0674	0.144
9	ASCL2	-0.185	1.76	-0.153	-0.23
10	GSDMB	-0.129	4.14	0.718	-0.157
11	RPL36	-0.618	2.47	-0.797	-0.922
12	ASIC2	-0.456	4.31	-0.51	-0.592
13	MCAM	0.664	0.914	0.629	0.691
14	ADAMTSL1	0.68	0.685	0.208	0.673
15	TMOD2	0.35	1.84	0.388	0.431
16	VNN2	-0.491	3.94	-0.361	-0.493
17	KMT2D	-0.106	1.54	-0.152	-0.101
18	ZNF212	0.0247	1.73	0.157	-0.0966
19	PHLPP1	0.505	1.93	0.397	0.632
20	CFHR4	-0.407	2.03	-0.183	-0.591

Laid out differently: 3 of the entries above
SYNGR1
- mean correlation with KSR1 profile: -0.666
- mean distance from KSR1 profile: 1.53
- KSR1 correlation, replicate 1: -0.836
- KSR1 correlation, replicate 2: -0.415

EIF2AK1
- mean correlation with KSR1 profile: 0.368
- mean distance from KSR1 profile: 1.77
- KSR1 correlation, replicate 1: 0.368
- KSR1 correlation, replicate 2: 0.224

WRAP73
- mean correlation with KSR1 profile: 0.257
- mean distance from KSR1 profile: 6.01
- KSR1 correlation, replicate 1: 0.275
- KSR1 correlation, replicate 2: 0.39
